According to article PMC5983586:
These are yes or no findings as the source states them, for the method shown. Binding seen in cells or lysates may run through a third protein. Some entries that bind do so weakly or less than the wild type. Sequences can lack the tags named with a protein.

Key:
[1] = target: Bovine PLIN2 BiFC fusion (PLIN2-VN173 or PLIN2-VC155) (bovine) (UniProt Q9TUM6); assay: split reporter; BiFC-FC: Venus fluorescence of co-transfected bovine adipocytes read by flow cytometry 24 h after transfection (excitation 488 nm, FL1 530 nm, 8 x 10^4 cells per sample)
[2] = target: Bovine PLIN2 BiFC fusion (PLIN2-VN173 or PLIN2-VC155) (bovine) (UniProt Q9TUM6); assay: split reporter; BiFC (Venus VN173 + VC155) in transfected bovine adipocytes; fluorescence microscopy 24 h after transfection

B1: Bovine PLIN2 BiFC fusion (PLIN2-VN173 or PLIN2-VC155) (protein, UniProt Q9TUM6-1 1-450)
chain: MASVAVEPQLSVVTRVANLPLVSSTYDLVSSAYISRKDQYPYLKSLCEMAEKGMKTITSVAVTSALPIIQKLEPQIAVANTYACKGLDRIEEKLPILNQPTNQVVANAKGAMTGAKDAVTTTVTGAKDSVASTITGVVDRTKGAVTGSVEKTKSVVSGSINTVLRSRVMQLMSSGVENALTKSELLVDQYLPLTKDELEKEAKKVEGFDMVQKPSYYVRLGSLSTKLRSRAYQQALCRVEEAKRKGQETISQLHSAFNLSELARKNVHNANQKIQDAQDKLYLSWLEWKRSIGYDDTDESHCAEHIESRTLAIARNLTQQLQTMCHTLLSNIQGLPQNIQDRANHLGVMAGDIYSVFRNAASFKEVSDGLLASSKGQLQKMKESLDDVMDYLVNNTPLNWLVGPFYPQVTESESAQAPGTTRRPGRWSRKHPKPVPVSNAEGSQPDDSSS
For B1, the binding [1] was “binds” and the binding [2] was “binds weakly”.
